Measurements as given in paper PMC6268524.
Results are given in words; binding and its absence hold for the method and conditions named. In cells and extracts the contact can be indirect. A yes stands for co-enrichment or nearness to the bait. Other partners may have been found.

Protein sequences, listed by entry. Tags and fused reporters are not part of them. Residues count along the entry.
UniProt Q9UNE7: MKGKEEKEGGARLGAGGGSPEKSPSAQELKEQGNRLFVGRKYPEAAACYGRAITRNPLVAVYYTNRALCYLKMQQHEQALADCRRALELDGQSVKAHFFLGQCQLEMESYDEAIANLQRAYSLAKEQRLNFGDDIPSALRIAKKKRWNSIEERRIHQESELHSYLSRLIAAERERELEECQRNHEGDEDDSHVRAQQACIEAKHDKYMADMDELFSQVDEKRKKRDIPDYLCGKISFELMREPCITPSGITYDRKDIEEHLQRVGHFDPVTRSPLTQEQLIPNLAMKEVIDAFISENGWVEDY
UniProt Q9NYU2, residues 43-1555: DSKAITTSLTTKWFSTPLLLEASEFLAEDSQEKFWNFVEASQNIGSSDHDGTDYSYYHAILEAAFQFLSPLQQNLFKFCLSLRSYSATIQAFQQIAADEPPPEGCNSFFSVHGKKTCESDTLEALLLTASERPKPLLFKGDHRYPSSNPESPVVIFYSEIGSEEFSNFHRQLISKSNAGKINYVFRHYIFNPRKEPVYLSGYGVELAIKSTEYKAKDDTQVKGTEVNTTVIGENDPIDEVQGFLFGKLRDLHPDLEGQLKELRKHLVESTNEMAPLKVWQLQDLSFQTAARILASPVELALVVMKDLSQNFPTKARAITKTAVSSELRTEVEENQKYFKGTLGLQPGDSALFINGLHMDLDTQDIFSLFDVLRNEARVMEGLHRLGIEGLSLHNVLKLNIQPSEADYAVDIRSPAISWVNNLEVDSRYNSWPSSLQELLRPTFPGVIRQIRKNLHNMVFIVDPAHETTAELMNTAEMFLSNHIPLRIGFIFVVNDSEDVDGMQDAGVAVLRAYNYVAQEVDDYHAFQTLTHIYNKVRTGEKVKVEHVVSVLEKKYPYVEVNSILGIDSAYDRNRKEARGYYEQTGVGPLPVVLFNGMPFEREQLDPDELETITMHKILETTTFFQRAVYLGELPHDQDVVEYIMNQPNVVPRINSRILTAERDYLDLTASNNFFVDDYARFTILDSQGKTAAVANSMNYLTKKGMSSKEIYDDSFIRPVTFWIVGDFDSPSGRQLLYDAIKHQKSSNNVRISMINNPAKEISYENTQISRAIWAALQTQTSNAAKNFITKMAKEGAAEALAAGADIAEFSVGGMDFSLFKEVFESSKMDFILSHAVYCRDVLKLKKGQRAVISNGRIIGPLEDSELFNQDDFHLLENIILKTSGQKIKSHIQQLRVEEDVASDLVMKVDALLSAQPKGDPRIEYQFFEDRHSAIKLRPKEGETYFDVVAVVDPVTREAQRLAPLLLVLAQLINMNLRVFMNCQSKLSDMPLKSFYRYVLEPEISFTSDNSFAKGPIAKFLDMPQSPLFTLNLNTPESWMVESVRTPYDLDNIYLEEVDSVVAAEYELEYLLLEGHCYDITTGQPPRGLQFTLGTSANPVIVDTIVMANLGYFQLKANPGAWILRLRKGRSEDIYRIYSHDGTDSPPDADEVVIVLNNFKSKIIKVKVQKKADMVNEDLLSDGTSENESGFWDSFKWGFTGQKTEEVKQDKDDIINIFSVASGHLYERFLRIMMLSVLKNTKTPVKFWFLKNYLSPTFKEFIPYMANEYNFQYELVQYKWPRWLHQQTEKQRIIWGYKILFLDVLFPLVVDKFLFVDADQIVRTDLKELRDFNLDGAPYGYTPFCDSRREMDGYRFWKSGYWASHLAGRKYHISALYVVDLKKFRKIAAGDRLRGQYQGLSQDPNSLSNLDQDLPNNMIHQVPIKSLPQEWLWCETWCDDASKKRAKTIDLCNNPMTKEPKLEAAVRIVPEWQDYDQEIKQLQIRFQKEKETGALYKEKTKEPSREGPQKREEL
UniProt P04792: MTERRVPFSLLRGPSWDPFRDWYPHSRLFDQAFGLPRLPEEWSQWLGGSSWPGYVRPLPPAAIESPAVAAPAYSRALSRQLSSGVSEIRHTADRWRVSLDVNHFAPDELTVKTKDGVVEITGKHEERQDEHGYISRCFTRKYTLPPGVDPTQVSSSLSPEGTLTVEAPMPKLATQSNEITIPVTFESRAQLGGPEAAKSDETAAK
UniProt Q8IXI2: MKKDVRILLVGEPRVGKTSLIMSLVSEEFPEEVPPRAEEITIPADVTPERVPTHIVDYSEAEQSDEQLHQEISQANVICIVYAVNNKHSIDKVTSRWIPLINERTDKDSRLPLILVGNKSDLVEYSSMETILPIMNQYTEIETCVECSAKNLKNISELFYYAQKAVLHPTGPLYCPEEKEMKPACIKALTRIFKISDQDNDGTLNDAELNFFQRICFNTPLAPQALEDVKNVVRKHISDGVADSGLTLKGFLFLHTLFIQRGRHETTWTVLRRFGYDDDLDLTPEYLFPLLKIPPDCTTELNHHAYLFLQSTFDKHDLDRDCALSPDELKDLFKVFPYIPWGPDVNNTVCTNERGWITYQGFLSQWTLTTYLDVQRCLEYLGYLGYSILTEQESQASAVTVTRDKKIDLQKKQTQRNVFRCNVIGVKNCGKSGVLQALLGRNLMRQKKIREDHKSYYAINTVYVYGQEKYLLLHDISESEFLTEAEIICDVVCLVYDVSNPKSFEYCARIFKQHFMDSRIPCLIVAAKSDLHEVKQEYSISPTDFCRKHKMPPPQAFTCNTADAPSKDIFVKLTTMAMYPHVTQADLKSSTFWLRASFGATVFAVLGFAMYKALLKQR
UniProt Q9BUF5: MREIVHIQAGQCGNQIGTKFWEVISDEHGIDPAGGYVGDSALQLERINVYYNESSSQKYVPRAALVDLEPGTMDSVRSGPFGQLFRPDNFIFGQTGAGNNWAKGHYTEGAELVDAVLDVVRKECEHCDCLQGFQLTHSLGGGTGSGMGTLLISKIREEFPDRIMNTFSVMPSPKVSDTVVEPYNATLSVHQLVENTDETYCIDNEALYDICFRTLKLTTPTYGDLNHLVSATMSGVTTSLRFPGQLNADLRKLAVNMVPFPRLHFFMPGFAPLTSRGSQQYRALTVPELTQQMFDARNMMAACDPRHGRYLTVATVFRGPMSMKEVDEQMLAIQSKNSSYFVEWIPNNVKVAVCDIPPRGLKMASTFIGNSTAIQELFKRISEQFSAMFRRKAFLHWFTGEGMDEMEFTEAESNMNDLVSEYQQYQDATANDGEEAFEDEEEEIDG

B1: reticulocalbin 1 (protein, UniProt Q15293 30-331)
chain: KPTVRKERVVRPDSELGERPPEDNQSFQYDHEAFLGKEDSKTFDQLTPDESKERLGKIVDRIDNDGDGFVTTEELKTWIKRVQKRYIFDNVAKVWKDYDRDKDDKISWEEYKQATYGYYLGNPAEFHDSSDHHTFKKMLPRDERRFKAADLNGDLTATREEFTAFLHPEEFEHMKEIVVLETLEDIDKNGDGFVDQDEYIADMFSHEENGPEPDWVLSEREQFNEFRDLNKDGKLDKDEIRHWILPQDYDHAQAEARHLVYESDKNKDEKLTKEEILENWNMFVGSQATNYGEDLTKNHDEL
B2: solute carrier family 25. member 10 (protein, UniProt Q9UBX3 1-287)
chain: MAAEARVSRWYFGGLASCGAACCTHPLDLLKVHLQTQQEVKLRMTGMALRVVRTDGILALYSGLSASLCRQMTYSLTRFAIYETVRDRVAKGSQGPLPFHEKVLLGSVSGLAGGFVGTPADLVNVRMQNDVKLPQGQRRNYAHALDGLYRVAREEGLRRLFSGATMASSRGALVTVGQLSCYDQAKQLVLSTGYLSDNIFTHFVASFIAGGCATFLCQPLDVLKTRLMNSKGEYQGVFHCAVETAKLGPLAFYKGLVPAGIRLIPHTVLTFVFLEQLRKNFGIKVPS
B3: protein disulfide isomerase family A, member 4 (protein, UniProt P13667 21-645)
chain: VAGAEGPDEDSSNRENAIEDEEEEEEEDDDEEEDDLEVKEENGVLVLNDANFDNFVADKDTVLLEFYAPWCGHCKQFAPEYEKIANILKDKDPPIPVAKIDATSASVLASRFDVSGYPTIKILKKGQAVDYEGSRTQEEIVAKVREVSQPDWTPPPEVTLVLTKENFDEVVNDADIILVEFYAPWCGHCKKLAPEYEKAAKELSKRSPPIPLAKVDATAETDLAKRFDVSGYPTLKIFRKGRPYDYNGPREKYGIVDYMIEQSGPPSKEILTLKQVQEFLKDGDDVIIIGVFKGESDPAYQQYQDAANNLREDYKFHHTFSTEIAKFLKVSQGQLVVMQPEKFQSKYEPRSHMMDVQGSTQDSAIKDFVLKYALPLVGHRKVSNDAKRYTRRPLVVVYYSVDFSFDYRAATQFWRSKVLEVAKDFPEYTFAIADEEDYAGEVKDLGLSESGEDVNAAILDESGKKFAMEPEEFDSDTLREFVTAFKKGKLKPVIKSQPVPKNNKGPVKVVVGKTFDSIVMDPKKDVLIEFYAPWCGHCKQLEPVYNSLAKKYKGQKGLVIAKMDATANDVPSDRYKVEGFPTIYFAPSGDKKNPVKFEGGDRDLEHLSKFIEEHATKLSRTKEEL
B4: Acylglycerol kinase lipid kinase (protein, UniProt Q53H12 1-422)
chain: MTVFFKTLRNHWKKTTAGLCLLTWGGHWLYGKHCDNLLRRAACQEAQVFGNQLIPPNAQVKKATVFLNPAACKGKARTLFEKNAAPILHLSGMDVTIVKTDYEGQAKKLLELMENTDVIIVAGGDGTLQEVVTGVLRRTDEATFSKIPIGFIPLGETSSLSHTLFAESGNKVQHITDATLAIVKGETVPLDVLQIKGEKEQPVFAMTGLRWGSFRDAGVKVSKYWYLGPLKIKAAHFFSTLKEWPQTHQASISYTGPTERPPNEPEETPVQRPSLYRRILRRLASYWAQPQDALSQEVSPEVWKDVQLSTIELSITTRNNQLDPTSKEDFLNICIEPDTISKGDFITIGSRKVRNPKLHVEGTECLQASQCTLLIPEGAGGSFSIDSEEYEAMPVEVKLLPRKLQFFCDPRKREQMLTSPTQ
B5: CDP-diacylglycerol-inositol 3-phosphatidyltransferase (protein, UniProt O14735 1-213)
chain: MPDENIFLFVPNLIGYARIVFAIISFYFMPCCPLTASSFYLLSGLLDAFDGHAARALNQGTRFGAMLDMLTDRCSTMCLLVNLALLYPGATLFFQISMSLDVASHWLHLHSSVVRGSESHKMIDLSGNPVLRIYYTSRPALFTLCAGNELFYCLLYLFHFSEGPLVGSVGLFRMGLWVTAPIALLKSLISVIHLITAARNMAALDAADRAKKK
B6: Calmegin (protein, UniProt O14967 20-610)
chain: EFMDDDVETEDFEENSEEIDVNESELSSEIKYKTPQPIGEVYFAETFDSGRLAGWVLSKAKKDDMDEEISIYDGRWEIEELKENQVPGDRGLVLKSRAKHHAISAVLAKPFIFADKPLIVQYEVNFQDGIDCGGAYIKLLADTDDLILENFYDKTSYIIMFGPDKCGEDYKLHFIFRHKHPKTGVFEEKHAKPPDVDLKKFFTDRKTHLYTLVMNPDDTFEVLVDQTVVNKGSLLEDVVPPIKPPKEIEDPNDKKPEEWDERAKIPDPSAVKPEDWDESEPAQIEDSSVVKPAGWLDDEPKFIPDPNAEKPDDWNEDTDGEWEAPQILNPACRIGCGEWKPPMIDNPKYKGVWRPPLVDNPNYQGIWSPRKIPNPDYFEDDHPFLLTSFSALGLELWSMTSDIYFDNFIICSEKEVADHWAADGWRWKIMIANANKPGVLKQLMAAAEGHPWLWLIYLVTAGVPIALITSFCWPRKVKKKHKDTEYKKTDICIPQTKGVLEQEEKEEKAALEKPMDLEEEKKQNDGEMLEKEEESEPEEKSEEEIEIIEGQEESNQSNKSGSEDEMKEADESTGSGDGPIKSVRKRRVRKD

target: FLAG-tagged wild-type PCSK9 (proprotein convertase subtilisin/kexin type 9) (human) (UniProt Q8NBP7); assay: affinity purification with mass spectrometry; anti-FLAG immunoprecipitation of FLAG-tagged wild-type PCSK9 from extracts of a stable T-Rex-293 line, elution with 3xFLAG peptide, limited electrophoresis, LC-MS/MS; empty-vector line as negative control; three experiments

binding, binds:
STIP1 homology and U-box containing protein 1 (from UniProt Q9UNE7 1-303)
UDP-glucose glycoprotein glucosyltransferase 1 (from UniProt Q9NYU2 43-1555)
heat shock 27kDa protein 1 (from UniProt P04792 1-205)
ras homolog gene family, member T1 (from UniProt Q8IXI2 1-618)
solute carrier family 25 member 1 (from UniProt P53007 14-311)
tubulin, beta 6 (from UniProt Q9BUF5 1-446)
B1
B2
B3
B4
B5
B6
